# Results reported in PMC11843629 (Journal of Enzyme Inhibition and Medicinal Chemistry, 2025).
# Test: general procedure: hybrid (solid and solution phase) peptide synthesis; HATU/DIPEA
# Conditions: for final LC-MS purity: whole synthesis, UPLC-MS
Substance,step yield (coupling step),step yield (late stage modification step),final LC-MS purity,final LC-MS purity (run 1),final LC-MS purity (run 2)
PEPTIDE1{[desaminoArg].Q.F.R.[Kbt]}$$$$V2.0,100%,38%,98.11%,–,–
PEPTIDE1{[desaminoArg].Q.[hPhe].R.[Kbt]}$$$$V2.0,–,56%,–,98.21%,98.2%
PEPTIDE1{[desaminoArg].Q.[hPhe].[Arg(OH)bt]}$$$$V2.0,–,–,99.5%,–,–

# Some peptides are written in HELM: one residue between dots, names in brackets for other building blocks, links after the first $.
